# Primary screen of a compound library

From ChEMBL document CHEMBL3988442, “University of Dundee, Small-Polar-MMV Screening Library” (2021).

Each number is a percent effect as filed. How 0% and 100% were set is not recorded. Most values in the screen are low, and negative values occur. Compounds were drawn at random from those tested, without regard to their results. A dash means the value is not listed here; it may have been measured.

A: 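Whole-cell assay for inhibitors of Mycobacterium tuberculosis growth, labelled Cornell in the record; the read-out is not stated. The concentration is filed as 10 mM, unlikely as a test dose, so the dose is not known. The record gives no direction; compounds strong in two other growth screens of this library score well above the rest, so higher reads as stronger inhibition. About 53,000 compounds were tested under these conditions; 1.7% (about 900) showed 50% or more at least once.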
B: 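Assay on Mycobacterium tuberculosis, filed only as a heat shock assay from Cornell; the read-out is not stated. The concentration is filed as 10 mM, unlikely as a test dose, so the dose is not known. Higher reads as stronger inhibition (inferred: compounds with an IC50 in retests scored well above the rest). About 69,000 compounds were tested under these conditions; 1.4% (about 930) showed 50% or more at least once.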

| # | compound | A | B |
|---|---|---|---|
| 1 | `Cc1nc(C(=O)NC2CCN(CCOc3ccc(Br)cc3)CC2)cs1` | 5.052 | 7.578 |
| 2 | `CCn1ccnc1CN1CCCN(C(=O)COC2CCCCC2)CC1` | 2.178 | -5.421 |
| 3 | `O=C(CCc1nccs1)N1CCN(c2ccccn2)CC1` | - | 9.439 |
| 4 | `NS(=O)(=O)CCNC(=O)c1nnn(-c2ccccc2)c1C1CC1` | 18.83 | 40.65 |
| 5 | `CC(C)(CNC(=O)C1CCCN(C(N)=O)C1)c1cccc(Cl)c1` (centres unmarked) | -30.05 | -31.07 |
| 6 | `CCOc1ccc(S(=O)(=O)NCCc2ccc(N(C)C)cc2)cc1F` | 22.23 | 0.8777 |
| 7 | `Cc1nc(C)c(C(=O)NCC(c2ccccc2Cl)N2CCOCC2)s1` (centres unmarked) | -24.53 | 1.372 |
| 8 | `[H][C@@]12CCN(C(=O)N(C)C)[C@]1([H])CC[C@H](C(=O)NC)O2` | 7.138 | -5.574 |
| 9 | `CC(C(=O)N(C)Cc1ccc(Br)o1)n1cncn1` (centres unmarked) | - | -0.4074 |
| 10 | `O=C(NCc1ccc2c(c1)CCCO2)c1ccccc1C1CCNC1` (centres unmarked) | 7.228 | 8.161 |
| 11 | `Cn1cc(-c2cnc(-c3ccnn3C)nc2)cc1C(=O)N1CCCC1` | 6.494 | 17.89 |
| 12 | `Cc1nc(N(C)C)nc(C)c1NS(=O)(=O)c1ccc(F)cc1F` | 5.653 | 5.938 |
| 13 | `[H][C@@]12CCCCCN(C(C)=O)[C@@]1([H])[C@H](c1cccc(F)c1)CN2C(C)=O` | -5.177 | -18.6 |
| 14 | `O=C(O)C(F)(F)F.O=C(O)C(F)(F)F.[H][C@@]12CN(Cc3ccoc3)CCO[C@]1([H])CN(Cc1cnn(C)c1)C2` | 23.04 | 7.374 |
| 15 | `CN(C)C(=O)c1ccccc1NC(=O)N(C)Cc1ccccc1O` | -38.2 | -14.17 |
| 16 | `Cc1ocnc1C(=O)N1CCCC1c1ccc(C(=O)N2CCSCC2)s1` (centres unmarked) | 17.96 | 9.355 |
| 17 | `COCc1ncn2c1CN(S(=O)(=O)c1cccc(OC)c1)CC2` | -48.52 | -3.53 |
| 18 | `COc1cccc(OCC2CCCN(c3cc(C(N)=O)ccn3)C2)c1` (centres unmarked) | - | -18.34 |
| 19 | `Cc1cnc(C(=O)N2CCC3(CCN(Cc4ccccn4)C3=O)C2)cn1.O=C(O)C(F)(F)F` (centres unmarked) | 29.07 | -9.376 |
| 20 | `CC(C)c1cc(N2CCC3(CCN(C)C3)C2)ncn1` (centres unmarked) | -1.629 | 0.9849 |
| 21 | `[H][C@@]12CN(Cc3nccn3C)C(=O)N1CCN(S(C)(=O)=O)C2` | -35.3 | -2.279 |
| 22 | `COc1cc(Cl)ccc1C(=O)N1CCCC(c2cc(C)[nH]n2)C1` (centres unmarked) | - | 0.6739 |
| 23 | `COc1ccc(-n2ncc(C(C)NCc3cnc(SC)nc3)c2C)cc1` (centres unmarked) | 7.887 | 20.17 |
| 24 | `O=C(O)C(F)(F)F.O=C1COC2(CCN(c3cccc(F)c3)CC2)CN1Cc1ccccn1` | 24.97 | -14.09 |
| 25 | `O=C(C1CCCCO1)N1CCc2ncnc(NCc3ccon3)c2CC1` (centres unmarked) | 19.47 | 17.45 |
| 26 | `Clc1ccc(C2NCCc3cc4c(cc32)OCCO4)cc1` (centres unmarked) | -48.3 | -32.34 |
| 27 | `CN(C)C(=O)CN1CC[C@]2(CN(CC3CC3)C[C@H]2c2ccccc2)C1=O.O=C(O)C(F)(F)F` | 8.699 | 1.151 |
| 28 | `CC(=O)N1CCCN(C(C(=O)O)c2cccc(C)c2C)CC1` (centres unmarked) | 0.9483 | -8.119 |
| 29 | `CC(C)(C)c1cn(C2CCN(C(=O)c3cnccn3)CC2)nn1` | -8.899 | 6.1 |
| 30 | `c1ccc(-n2cc(CN3CCCCC3Cn3cncn3)nn2)cc1` (centres unmarked) | -1.479 | -14.46 |
| 31 | `Cc1cnc(C2(C)CCN(Cc3cscn3)CC2)s1` | 6.996 | -12.26 |
| 32 | `Cc1ccccc1C(C#N)NC(=O)c1cccc2c1OCCO2` (centres unmarked) | - | -40.49 |
| 33 | `Cc1nc2c(cc1C(=O)O)CCN(CC1CC1)CC2.O=C(O)C(F)(F)F.O=C(O)C(F)(F)F` | 7.744 | 0.3779 |
| 34 | `COCC1CCN(Cc2cc(O)c3c(C)ccc(C)c3n2)CC1` | 24.61 | 16.83 |
| 35 | `COc1ccc(CN2CC[C@@H](O)[C@@H]2Cc2ccccc2)cc1.O=C(O)C(F)(F)F` | - | -11.18 |
| 36 | `CCCN(Cc1nc(-c2ccc(F)c(OC)c2)oc1C)CC1CCCO1` (centres unmarked) | -13.24 | -27.48 |
| 37 | `CC(C)c1nc(CN(C)C2CCN(CC(F)(F)F)C2)no1` (centres unmarked) | 9.371 | 1.167 |
| 38 | `N#Cc1ccsc1NC(=O)CCN1CCn2c(nnc2C2CC2)C1` | - | -10.29 |
| 39 | `Cn1cc(-c2cnc3n2CCC32CCN(S(=O)(=O)C3CC3)CC2)cn1.O=C(O)C(F)(F)F` | 4.072 | -28.53 |
| 40 | `CCOCC1CN(C(=O)c2cccnc2)Cc2cnn(C)c21` (centres unmarked) | 44.13 | -25.07 |
| 41 | `COc1ncc(CN(C)C(C)c2cccnc2)cn1` (centres unmarked) | -7.174 | -11.03 |
| 42 | `Cc1n[nH]cc1CNc1ccc2c(c1)CN(C(=O)OC(C)(C)C)CC2` | 2.781 | 23.35 |
| 43 | `CCCn1cc(C(=O)n2nc(C)cc2C)c(S(=O)(=O)N2CCSCC2)n1` | - | -30.44 |
| 44 | `CC(=O)N1N=C(c2ccccc2)OC1C(=O)NCCC1=CCCCC1` (centres unmarked) | - | -12.6 |
| 45 | `Cc1cc(NCC(=O)N(C)CC(F)(F)F)c(C(N)=O)cc1F` | -21.1 | 19.94 |
| 46 | `[H][C@@]12CC(=O)N(Cc3csc(C)n3)[C@@]1([H])CCN2S(=O)(=O)C1CC1` | -21.4 | -16.49 |
| 47 | `Cc1nc(C)n(CC2CCCN2CCc2cccs2)n1` (centres unmarked) | - | -1.414 |
| 48 | `CS(=O)(=O)CCn1ccc(NC(=O)c2c(F)cccc2F)n1` | -3.355 | 7.807 |
| 49 | `N#Cc1cccc(N2CC3(CCN(C(=O)C4CC=CC4)C3)CC2=O)c1` (centres unmarked) | 16.17 | -13.26 |
| 50 | `Cc1nc(C2CCN(C(C)C)CC2)sc1Br` | 3.819 | 3.57 |
| 51 | `CN(C)CCOCC1CN(C(=O)c2ccccn2)Cc2ccnn2C1` (centres unmarked) | -4.79 | -2.285 |
| 52 | `COCC1CN(CCOc2ccc(Cl)cc2)Cc2c1cnn2C.O=C(O)C(F)(F)F.O=C(O)C(F)(F)F` (centres unmarked) | 4.657 | -3.656 |
| 53 | `CC(C)NC(=O)N1CCC2(CC1)Cc1ccccc1CN(C)C2=O` | -14.85 | 38.92 |
| 54 | `CN1CC2(CCN(C(=O)c3[nH]cnc3-c3ccccc3)C2)OC1=O` (centres unmarked) | -6.001 | -15.84 |
| 55 | `Cc1cnn(CCNCC(=O)N2CCN(c3ncccn3)CC2)c1` | -11.31 | 1.308 |
| 56 | `Cc1noc(C2CN(CC(=O)NCC3CCCO3)C2)n1` (centres unmarked) | 12.91 | 12.81 |
| 57 | `CN(Cc1cccs1)C(=O)CN1CCCCC1Cn1cncn1` (centres unmarked) | - | -16.15 |
| 58 | `NCc1cnc(Nc2ccccc2)nc1` | -2.27 | 3.966 |
| 59 | `Cn1cnc2c1CCN(Cc1csc(-c3ccccc3)n1)C2` | - | -8.138 |
| 60 | `CCc1nnsc1C(=O)N1CCCC(n2ccnc2C(C)C)C1` (centres unmarked) | -7.541 | -3.19 |
| 61 | `O=c1n(CC2CCCO2)nc(CC2CCNCC2)n1-c1ccccc1` (centres unmarked) | 3.065 | 24.68 |
| 62 | `CCC1CN(Cc2ccccc2)CCN1Cc1nnc(C2CCC2)o1` (centres unmarked) | 0.5577 | 2.583 |
| 63 | `CCOC1Sc2nnc(C)n2N=C1c1ccc(Cl)cc1` (centres unmarked) | 6.695 | 12.72 |
| 64 | `CCc1cnc(C)nc1NCCSc1nnc(C)n1CC` | -12.11 | -25.51 |
| 65 | `Cc1cc(NC(=O)CN2CCn3c(nnc3C3CC3)C2)n(C)n1` | - | 3.67 |
| 66 | `COc1ccc2c(c1)CN(Cc1ccco1)C(=O)CCN2` | -0.009275 | 54.29 |
| 67 | `CCSCc1nc(O)c2nnn(C3CCN(Cc4ccoc4)CC3)c2n1` | 22.25 | -3.21 |
| 68 | `CSCCC(=O)NS(=O)(=O)c1ccc2c(c1)OCCO2` | -13.79 | 8.001 |
| 69 | `CCn1nc(C)c2ccn(CC(=O)NC3CC3)c(=O)c21` | -2.693 | -8.675 |
| 70 | `CC(C)OCCN1CCC(C(=O)c2cc(F)ccc2F)CC1` | - | 6.959 |
| 71 | `Cn1c(C2CC2)nc2c1CCN(Cc1nc3ccccc3s1)C2` | -26.53 | -3.665 |
| 72 | `COc1ncccc1-c1cc(C(=O)NC2CC2)ccn1` | - | -136.4 |
| 73 | `CN1CC2(CCN(C(=O)c3ccc4nonc4c3)CC2)CC1=O` | -4.108 | 8.589 |
| 74 | `CC(C)C(C(=O)N1CCCN(c2cccnn2)CC1)n1cncn1` (centres unmarked) | -51.75 | 0.5282 |
| 75 | `Cc1cc(N(C)Cc2c(C)noc2C)n2nc(C)c(C)c2n1` | -22.51 | -31.35 |
| 76 | `COc1ccc(C(O)CN2CC(n3cc(C)cn3)C2)cc1` (centres unmarked) | 36.43 | 1.763 |
| 77 | `COCCCN1CCCC12CCN(Cc1cccnc1OC)CC2.O=C(O)C(F)(F)F.O=C(O)C(F)(F)F` | -19.8 | -9.503 |
| 78 | `CCn1ncc2c(C(F)(F)F)cc(-c3cnn(C)c3)nc21` | - | -17.88 |
| 79 | `COC(C)(CNS(=O)(=O)c1cn(C)cn1)c1ccccc1F` (centres unmarked) | 2.678 | 13.75 |
| 80 | `COc1nccnc1N1CCN(Cc2ccc3c(c2)OCO3)C(=O)C1` | 5.471 | 3.738 |
| 81 | `CCCn1cnnc1CNC(=O)C1COc2c(cccc2OC)C1` (centres unmarked) | -10.68 | 30.31 |

The last 6 entries again:

compound	A	B
COc1ccc(C(O)CN2CC(n3cc(C)cn3)C2)cc1 (centres unmarked)	36.43	1.763
COCCCN1CCCC12CCN(Cc1cccnc1OC)CC2.O=C(O)C(F)(F)F.O=C(O)C(F)(F)F	-19.8	-9.503
CCn1ncc2c(C(F)(F)F)cc(-c3cnn(C)c3)nc21	-	-17.88
COC(C)(CNS(=O)(=O)c1cn(C)cn1)c1ccccc1F (centres unmarked)	2.678	13.75
COc1nccnc1N1CCN(Cc2ccc3c(c2)OCO3)C(=O)C1	5.471	3.738
CCCn1cnnc1CNC(=O)C1COc2c(cccc2OC)C1 (centres unmarked)	-10.68	30.31